Assay results reported in paper PMC7862700.
The list shows a part of the results, in another mix than the full data. For part of these data: At the low end of the ranking the order means little. Some of the results follow. For part of these data: Construct or isoform of the protein are uncertain.

The sequences below were run against T1, ETS1 (UniProt P14921) (assay: DAPPL (digital affinity profiling via proximity ligation, sequencing)). Settings: 10 mM Tris-HCl pH 7.5, 50 mM NaCl, 1 mM DTT, 4% glycerol, room temperature, 30 min; GST-TFs on glutathione beads, 16-mer random dsDNA library, 0.1% …; high values mean tight binding; double strand, one strand shown; scale: fold enrichment (6-mer frequency, TF over GST control).
T1 sequence: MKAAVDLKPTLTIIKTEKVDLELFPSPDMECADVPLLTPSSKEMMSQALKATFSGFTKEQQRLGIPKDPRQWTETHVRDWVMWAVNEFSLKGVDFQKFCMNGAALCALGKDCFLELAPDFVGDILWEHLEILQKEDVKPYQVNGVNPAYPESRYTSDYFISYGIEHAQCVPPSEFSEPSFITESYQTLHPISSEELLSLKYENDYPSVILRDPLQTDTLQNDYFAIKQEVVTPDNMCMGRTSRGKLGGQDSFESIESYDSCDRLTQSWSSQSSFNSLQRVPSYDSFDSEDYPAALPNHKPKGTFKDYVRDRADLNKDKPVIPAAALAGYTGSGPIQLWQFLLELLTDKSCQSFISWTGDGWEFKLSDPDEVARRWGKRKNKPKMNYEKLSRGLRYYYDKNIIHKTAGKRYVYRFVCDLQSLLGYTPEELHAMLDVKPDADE
CGTGTA gave a binding signal of 0.681. GAGATC gave a binding signal of 0.415. For GGAGGG, the binding signal was 0.316. AAGTGA gave a binding signal of 0.639. In the case of GAGAGA, the binding signal is reported as 0.433. With GGATCG the binding signal was 0.606. GACATA gave a binding signal of 0.885. Sequence CAGTCC has a binding signal of 0.626. GGCACG showed a binding signal of 0.772. GGTAGA showed a binding signal of 0.601. With CAACGT the binding signal was 0.893. In the case of CCCAGT, the binding signal is reported as 0.663. For CGGTAA, the binding signal was 0.904. GGGAAC gave a binding signal of 0.662. GAGCGA was tested, and the binding signal was 0.629. With GATCGC the binding signal was 0.87. Work on CGGGGG yielded a binding signal of 0.492. GGTAAG showed a binding signal of 0.758. With ACGGTG the binding signal was 0.527. In the case of CGTCGT, the binding signal is reported as 1.04. Work on GTACCG yielded a binding signal of 0.712. Sequence GAGAAC has a binding signal of 0.403. For GCATTG, the binding signal was 0.774. For ACTGAG, the binding signal was 0.739. Sequence GTTGGG has a binding signal of 0.698. CGGCGA gave a binding signal of 0.683. Sequence GTAGAG has a binding signal of 0.574. TTGGAG gave a binding signal of 0.51. GTGTGG was tested, and the binding signal was 0.59. CGGTCC showed a binding signal of 0.983. GGGGGA gave a binding signal of 0.579. Sequence GTGTAT has a binding signal of 0.943. For TCGTGA, the binding signal was 0.324. For GACAGC, the binding signal was 0.723. GGCGTG gave a binding signal of 0.359. GTCAGT was tested, and the binding signal was 0.607. Sequence AGCGTT has a binding signal of 0.961. For TGTGTA, the binding signal was 0.94. AGACGA was tested, and the binding signal was 0.719.

The sequences below were run against T2, SPDEF (UniProt O95238) in the same assay as above. Settings: 10 mM Tris-HCl pH 7.5, 50 mM NaCl, 1 mM DTT, 4% glycerol, room temperature, 30 min; GST-TFs on glutathione beads, 16-mer random dsDNA library, 0.1% …; high values mean tight binding; double strand, one strand shown; scale: fold enrichment (6-mer frequency, TF over GST control).
T2 sequence: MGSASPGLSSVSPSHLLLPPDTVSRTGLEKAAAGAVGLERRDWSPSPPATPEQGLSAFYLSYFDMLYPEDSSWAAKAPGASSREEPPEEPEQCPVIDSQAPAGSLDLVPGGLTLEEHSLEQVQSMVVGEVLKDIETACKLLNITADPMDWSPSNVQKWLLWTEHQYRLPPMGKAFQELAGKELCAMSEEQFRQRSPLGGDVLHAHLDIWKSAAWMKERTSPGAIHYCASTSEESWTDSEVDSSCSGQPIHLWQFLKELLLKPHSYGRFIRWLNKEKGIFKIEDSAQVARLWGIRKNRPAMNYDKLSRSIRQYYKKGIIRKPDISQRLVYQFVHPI
CGTGTA gave a binding signal of 0.721. For GAGATC, the binding signal was 0.557. In the case of GGAGGG, the binding signal is reported as 0.312. AAGTGA gave a binding signal of 0.632. GAGAGA gave a binding signal of 0.416. Work on GGATCG yielded a binding signal of 0.622. Sequence GACATA has a binding signal of 0.936. Sequence CAGTCC has a binding signal of 0.67. In the case of GGCACG, the binding signal is reported as 0.787. With GGTAGA the binding signal was 0.669. In the case of CAACGT, the binding signal is reported as 0.841. For CCCAGT, the binding signal was 0.621. Work on CGGTAA yielded a binding signal of 0.96. With GGGAAC the binding signal was 0.691. GAGCGA gave a binding signal of 0.627. In the case of GATCGC, the binding signal is reported as 0.779. Work on CGGGGG yielded a binding signal of 0.444. GGTAAG gave a binding signal of 0.735. In the case of ACGGTG, the binding signal is reported as 0.496. With CGTCGT the binding signal was 0.766. Sequence GTACCG has a binding signal of 0.754. Sequence GAGAAC has a binding signal of 0.382. For GCATTG, the binding signal was 0.688. In the case of ACTGAG, the binding signal is reported as 0.776. For GTTGGG, the binding signal was 0.657. CGGCGA was tested, and the binding signal was 0.678. GTAGAG showed a binding signal of 0.625. Work on TTGGAG yielded a binding signal of 0.521. GTGTGG showed a binding signal of 0.631. In the case of CGGTCC, the binding signal is reported as 1.04. In the case of GGGGGA, the binding signal is reported as 0.591. GTGTAT gave a binding signal of 0.988. For TCGTGA, the binding signal was 0.313. In the case of GACAGC, the binding signal is reported as 0.781. Work on GGCGTG yielded a binding signal of 0.35. In the case of GTCAGT, the binding signal is reported as 0.602. AGCGTT showed a binding signal of 0.895. TGTGTA was tested, and the binding signal was 0.911. AGACGA showed a binding signal of 0.704.
